Results are given in words; binding and its absence hold for the method and conditions named. Some binding calls cover weakened binding; strength is not graded here.
Experiments:
[1] = molecular target: SNAP25197, BoNT/A-cleaved SNAP25 (rat) (rat) (UniProt P60881); assay: IHC, rat bladder treated with BOTOX (FIG. 8)
[2] = molecular target: SNAP25197, BoNT/A-cleaved SNAP25 (rat) (rat) (UniProt P60881); assay: IHC, rat bladder +/- BOTOX (FIG. 8)
[3] = molecular target: SNAP25197, BoNT/A-cleaved SNAP25 (rat) (rat) (UniProt P60881); assay: IHC, rat bladder treated with BOTOX (FIG. 8K-O)

Amino acid sequences for entries named in this document (tags omitted). Residues count along the entry.
UniProt P60881, residues 1-197: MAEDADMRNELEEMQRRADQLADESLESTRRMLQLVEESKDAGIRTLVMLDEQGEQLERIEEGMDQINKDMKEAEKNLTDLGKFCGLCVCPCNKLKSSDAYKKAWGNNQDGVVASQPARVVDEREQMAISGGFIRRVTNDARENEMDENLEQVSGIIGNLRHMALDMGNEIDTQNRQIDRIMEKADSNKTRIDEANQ

Measured: binding

B1: original non-recombinant 3C1A5 mAb purified from ascites (antibody, V domains shown)
VH: QVKLQESGAELVKPGASVKISCKASGYTFTDHSIHWVKQKPGQGLEWIGYLFPGNGNFEYNEKFKGKATLTADKSSSTVYMYLNSLTSEDSAVYFCKRMGYWGQGTTVTVSS
VL: DVVMTQTPLTLSVTIGQPASISCKSSQSLLNTNGKTYLTWLIQRPGQSPQRLIYLVSKLDSGVPDRFSGSGSGTDFTLKISRVEAEDLGVYYCLQSSHFPFTFGSGTKLEIK
binds: all assays above
